Test results as given in publication PMC10648572.
Results are given in words; binding and its absence hold for the method and conditions named. In cells and extracts the contact can be indirect. Some binding calls cover weakened binding; strength is not graded here.

Protein sequences, listed by entry. Tags and fused reporters are not part of them.
UniProt P15056: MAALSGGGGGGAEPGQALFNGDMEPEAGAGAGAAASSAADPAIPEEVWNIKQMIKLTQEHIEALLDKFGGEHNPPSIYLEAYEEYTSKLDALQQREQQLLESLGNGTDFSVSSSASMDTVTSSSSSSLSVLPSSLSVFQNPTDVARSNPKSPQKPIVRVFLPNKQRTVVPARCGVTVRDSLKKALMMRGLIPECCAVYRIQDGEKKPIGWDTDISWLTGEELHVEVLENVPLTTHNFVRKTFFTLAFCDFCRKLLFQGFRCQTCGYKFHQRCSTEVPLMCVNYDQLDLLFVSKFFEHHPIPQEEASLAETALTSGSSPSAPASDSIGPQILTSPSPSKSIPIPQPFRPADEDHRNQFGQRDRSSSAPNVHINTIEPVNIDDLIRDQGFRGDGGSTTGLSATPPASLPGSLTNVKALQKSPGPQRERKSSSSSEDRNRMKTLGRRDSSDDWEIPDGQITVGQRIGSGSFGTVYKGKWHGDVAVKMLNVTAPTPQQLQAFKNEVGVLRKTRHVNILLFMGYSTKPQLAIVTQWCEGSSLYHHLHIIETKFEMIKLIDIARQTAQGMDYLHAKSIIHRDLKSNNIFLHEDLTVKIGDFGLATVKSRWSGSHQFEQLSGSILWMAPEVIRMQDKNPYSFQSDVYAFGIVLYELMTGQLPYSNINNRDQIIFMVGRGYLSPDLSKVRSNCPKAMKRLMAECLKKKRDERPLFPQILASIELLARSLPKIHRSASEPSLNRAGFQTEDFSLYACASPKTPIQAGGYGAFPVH
UniProt Q9H1X3: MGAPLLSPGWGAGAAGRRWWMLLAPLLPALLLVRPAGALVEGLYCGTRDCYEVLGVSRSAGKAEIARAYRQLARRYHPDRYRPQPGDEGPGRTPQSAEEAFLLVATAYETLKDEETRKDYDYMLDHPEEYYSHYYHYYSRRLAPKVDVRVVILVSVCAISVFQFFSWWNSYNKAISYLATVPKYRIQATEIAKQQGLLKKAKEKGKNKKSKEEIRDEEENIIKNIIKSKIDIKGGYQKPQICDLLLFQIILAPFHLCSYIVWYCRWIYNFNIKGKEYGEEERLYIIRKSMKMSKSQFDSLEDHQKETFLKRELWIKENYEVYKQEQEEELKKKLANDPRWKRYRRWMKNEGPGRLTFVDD

Tests used:
[1] = molecular target: T1, RNF149 as used in the co-immunoprecipitation experiments (construct not stated) (human) (UniProt Q8NC42); test: co-IP; not described; result told only in the discussion ('our Co-IP experiments')
T1 sequence: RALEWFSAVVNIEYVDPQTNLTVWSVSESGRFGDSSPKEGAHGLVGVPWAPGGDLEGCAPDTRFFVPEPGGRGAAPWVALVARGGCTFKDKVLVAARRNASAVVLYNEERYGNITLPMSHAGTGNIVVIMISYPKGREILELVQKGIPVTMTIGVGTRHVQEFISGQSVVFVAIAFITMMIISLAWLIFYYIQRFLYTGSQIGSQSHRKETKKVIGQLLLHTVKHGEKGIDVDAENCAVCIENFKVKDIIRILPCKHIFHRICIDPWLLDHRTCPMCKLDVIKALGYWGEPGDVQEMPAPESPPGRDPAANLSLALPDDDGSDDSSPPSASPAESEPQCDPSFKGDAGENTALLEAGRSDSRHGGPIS

[2] = molecular target: T1, RNF149 as used in the co-immunoprecipitation experiments (construct not stated) (human); test: co-IP; cells transfected with indicated plasmids; NETN lysis buffer; IP and WB (Figure 7H)

B-RAF (from UniProt P15056 1-766)
binding [1]: no binding

DNAJC25 as used in the co-immunoprecipitation of Figure 7H (from UniProt Q9H1X3 1-360)
binding [2]: binds
